Assay results reported in the supplement of paper PMC10331698.
± gives the standard deviation of the averaged measurements. Most values lie at the level of the controls, where differences are scatter.

Columns and labels:
Experiment in all cases: level (log10 ratio to DMSO vehicle control); higher = higher biomarker level / cell amount than vehicle control
[1] = compound: O=P(O)(O)CCC(F)(F)C(F)(F)C(F)(F)C(F)(F)C(F)(F)C(F)(F)C(F)(F)C(F)(F)F [((Perfluorooctyl)ethyl)phosphonic acid]; details: 2200 nM; in DMSO
Description: (§1)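 BioMAP Diversity Plus panel of 12 human primary cell co-culture systems (3C, 4H, LPS, SAg, BT, BF4T, BE3C, CASM3C, HDF3CGF, KF3CT, MyoF, Mphg). Compounds were added 1 h before stimulation and left for 24 h (MyoF 48 h; BT 72 h for soluble read-outs or 6 d for IgG). Biomarkers were read by ELISA, cytotoxicity by SRB, PBMC viability and proliferation by Alamar Blue. Each well value was divided by the mean of 8 DMSO control wells on the same plate and log10 transformed; duplicate blinded samples were tested at 4 concentrations.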

[2] = compound: C=C(C)C(=O)OCC(F)(F)C(F)(F)C(F)(F)F [2,2,3,3,4,4,4-Heptafluorobutyl methacrylate]; details: 2200 nM; in DMSO
Description: as §1

[3] = compound: FC(F)(F)C(F)(F)C(F)(F)C(F)(F)C(F)(F)C(F)(F)C(F)(F)CCI [1-Iodo-1H,1H,2H,2H-perfluorononane]; details: in DMSO
Description: as §1

Perfluoroundecanoic acid = compound: O=C(O)C(F)(F)C(F)(F)C(F)(F)C(F)(F)C(F)(F)C(F)(F)C(F)(F)C(F)(F)C(F)(F)C(F)(F)F [Perfluoroundecanoic acid]; details: in DMSO
Description: as §1

Perfluorobutanoic acid = compound: O=C(O)C(F)(F)C(F)(F)C(F)(F)F [Perfluorobutanoic acid]; details: 2200 nM; in DMSO
Description: as §1

[4] = compound: O=C(O)C(F)(F)C(F)(F)OC(F)(F)F [Perfluoro-3-methoxypropanoic acid]; details: 2200 nM; in DMSO
Description: as §1

[5] = compound: FC(F)C(F)(F)COCC1CO1 [((2,2,3,3-Tetrafluoropropoxy)methyl)oxirane]; details: 2200 nM; in DMSO
Description: as §1

Perfluoropropanoic acid = compound: O=C(O)C(F)(F)C(F)(F)F [Perfluoropropanoic acid]; details: 2200 nM; in DMSO
Description: as §1

[6] = compound: FC(F)(F)C(F)(F)C(F)(F)C(F)(F)C(F)(F)C(F)(F)C(F)(F)I [1-Iodopentadecafluoroheptane]; details: in DMSO
Description: as §1

[7] = compound: OCCC(F)(F)C(F)(F)C(F)(F)C(F)(F)C(F)(F)C(F)(F)C(F)(F)C(F)(F)F [8:2 Fluorotelomer alcohol]; details: 2200 nM; in DMSO
Description: as §1

[8] = compound: O=C(O)C(F)(F)OC(F)(F)C(F)(F)OC(F)(F)C(F)(F)C(F)(F)C(F)(F)F [Perfluoro-3,6-dioxadecanoic acid]; details: 2200 nM; in DMSO
Description: as §1

[9] = compound: OCC(F)(F)C(F)(F)C(F)(F)C(F)(F)C(F)(F)C(F)(F)C(F)(F)C(F)(F)C(F)(F)C(F)(F)C(F)(F)F [11:1 Fluorotelomer alcohol]; details: in DMSO
Description: as §1

[10] = compound: O=C(O)C(F)(F)C(F)(F)C(F)(F)C(F)(F)C(F)(F)C(F)(F)C(F)(F)C(F)F [9-H-Perfluorononanoic acid]; details: 2200 nM; in DMSO
Description: as §1

[11] = compound: O=C(O)C(F)(F)OC(F)(F)C(F)(F)OC(F)(F)C(=O)O [Perfluoro-3,6-dioxaoctane-1,8-dioic acid]; details: 2200 nM; in DMSO
Description: as §1

Perfluorooctanamide = compound: NC(=O)C(F)(F)C(F)(F)C(F)(F)C(F)(F)C(F)(F)C(F)(F)C(F)(F)F [Perfluorooctanamide]; details: 2200 nM; in DMSO
Description: as §1

[12] = compound: C=CC(=O)OCC(F)(F)C(F)(F)C(F)(F)C(F)(F)COC(=O)C=C [1H,1H,6H,6H-Perfluorohexane-1,6-diol diacrylate]; details: 2200 nM; in DMSO
Description: as §1

[13] = compound: O=S(=O)(Cl)C(F)(F)C(F)(F)C(F)(F)C(F)(F)C(F)(F)C(F)(F)C(F)(F)C(F)(F)F [Perfluoro-1-octanesulfonyl chloride]; details: 2200 nM; in DMSO
Description: as §1

[14] = compound: O=C(O)C=CC(F)(C(F)(F)F)C(F)(F)F [3-(Perfluoroisopropyl)-2-propenoic acid]; details: in DMSO
Description: as §1

| Test System | level (log10) [1] | level (log10) [2] | level (log10) ([3]; 740 nM) | level (log10) ([3]; 2200 nM) | level (log10) ([3]; 6700 nM) | level (log10) ([3]; 20000 nM) | level (log10) (Perfluoroundecanoic acid; 740 nM) | level (log10) (Perfluoroundecanoic acid; 2200 nM) | level (log10) (Perfluorobutanoic acid) | level (log10) [4] | level (log10) [5] | level (log10) (Perfluoropropanoic acid) | level (log10) ([6]; 740 nM) | level (log10) ([6]; 2200 nM) | level (log10) ([6]; 6700 nM) | level (log10) ([6]; 20000 nM) | level (log10) [7] | level (log10) [8] | level (log10) ([9]; 370 nM) | level (log10) ([9]; 1100 nM) | level (log10) ([9]; 3300 nM) | level (log10) ([9]; 10000 nM) | level (log10) [10] | level (log10) [11] | level (log10) (Perfluorooctanamide) | level (log10) [12] | level (log10) [13] | level (log10) ([14]; 2200 nM) | level (log10) ([14]; 6700 nM) | level (log10) ([14]; 20000 nM) | level (log10) ([14]; 60000 nM) |
| --- | --- | --- | --- | --- | --- | --- | --- | --- | --- | --- | --- | --- | --- | --- | --- | --- | --- | --- | --- | --- | --- | --- | --- | --- | --- | --- | --- | --- | --- | --- | --- |
| lMphg:SRB-Mphg | 0.0135 ± 0.0092 | 0.014 ± 0.02 | 0.0285 ± 0.036 | 0.0255 ± 0.012 | 0.001 ± 0.03 | 0.001 ± 0.011 | 0.003 ± 0.0014 | -0.0065 ± 0.00071 | 0.051 ± 0.0057 | 0 ± 0.018 | -0.0015 ± 0.015 | -0.014 ± 0.072 | -0.0025 ± 0.022 | -0.0105 ± 0.026 | 0.005 ± 0.018 | 0.0125 ± 0.011 | 0.0005 ± 0.039 | -0.006 ± 0.011 | -0.003 ± 0.028 | -0.039 ± 0.0014 | -0.105 ± 0.0085 | -0.205 ± 0.0085 | 0.045 ± 0.0014 | -0.0055 ± 0.0035 | 0.0025 ± 0.029 | -0.0515 ± 0.011 | 0.0145 ± 0.032 | 0.009 ± 0.014 | 0.0005 ± 0.013 | 0.004 ± 0.0085 | 0.0075 ± 0.015 |
| LPS:CXCL8/IL-8 | -0.0175 ± 0.019 | -0.013 ± 0.017 | 0.023 ± 0.016 | 0.0235 ± 0.021 | 0.005 ± 0.072 | -0.001 ± 0.082 | 0.017 ± 0.0028 | -0.006 ± 0.03 | 0.018 ± 0.041 | 0.032 ± 0.0085 | -0.0295 ± 0.039 | -0.0055 ± 0.047 | 0.0145 ± 0.044 | -0.0045 ± 0.042 | 0.026 ± 0.055 | 0.0325 ± 0.005 | -0.0095 ± 0.076 | -0.023 ± 0.041 | 0.0285 ± 0.0035 | -0.007 ± 0.011 | -0.013 ± 0.0014 | -0.0305 ± 0.039 | 0.022 ± 0.088 | 0.0255 ± 0.044 | -0.018 ± 0.035 | -0.0105 ± 0.049 | 0.002 ± 0.064 | -0.0075 ± 0.044 | -0.0055 ± 0.019 | -0.0205 ± 0.023 | -0.0015 ± 0.019 |
| lMphg:IL-1alpha | -0.0155 ± 0.028 | 0.011 ± 0.023 | 0.0075 ± 0.097 | -0.02 ± 0.04 | -0.012 ± 0.014 | 0.055 ± 0.045 | 0.028 ± 0.058 | 0.0105 ± 0.057 | 0.049 ± 0.033 | 0.0075 ± 0.043 | -0.0075 ± 0.057 | -0.034 ± 0.037 | 0.044 ± 0.021 | 0.0255 ± 0.012 | 0.03 ± 0.045 | 0.014 ± 0.0085 | 0.009 ± 0.033 | -0.0185 ± 0.028 | 0.049 ± 0.028 | 0.057 ± 0.025 | 0.039 ± 0.0085 | -0.12 ± 0.076 | 0.0275 ± 0.042 | 0.02 ± 0.023 | 0.0205 ± 0.032 | 0.022 ± 0.025 | 0.017 ± 0.037 | -0.0155 ± 0.054 | -0.0055 ± 0.037 | 0.0095 ± 0.016 | -0.0025 ± 0.012 |
| SAg:CD69 | -0.007 ± 0.0028 | 0.0115 ± 0.0092 | 0.0095 ± 0.005 | -0.012 ± 0.013 | -0.011 ± 0.017 | -0.0015 ± 0.018 | -0.0245 ± 0.0021 | -0.0255 ± 0.0078 | 0.006 ± 0.021 | 0.001 ± 0.028 | -0.0015 ± 0.011 | -0.0285 ± 0.0021 | -0.017 ± 0.028 | -0.0245 ± 0.0078 | -0.028 ± 0.0071 | -0.039 ± 0.0014 | -0.0145 ± 0.029 | -0.003 ± 0.0028 | -0.0225 ± 0.021 | -0.0355 ± 0.021 | -0.0425 ± 0.029 | -0.038 ± 0.023 | 0.005 ± 0.018 | -0.003 ± 0.021 | -0.012 ± 0.025 | -0.0035 ± 0.012 | -0.0115 ± 0.0021 | -0.005 ± 0.0028 | -0.0105 ± 0.0035 | 0.013 ± 0.0085 | 0.002 ± 0.0071 |
| CASM3C:PAI-I | 0.0165 ± 0.0092 | -0.0035 ± 0.0021 | 0.004 ± 0.021 | 0.0085 ± 0.0064 | 0.0015 ± 0.00071 | 0.0035 ± 0.00071 | -0.008 ± 0.013 | -0.0185 ± 0.025 | 0.0035 ± 0.0092 | 0.013 ± 0.028 | 0.005 ± 0.0014 | 0.0065 ± 0.0035 | -0.004 ± 0.0042 | -0.0115 ± 0.011 | -0.013 ± 0.011 | 0.0075 ± 0.011 | -0.0015 ± 0.018 | 0.009 ± 0.0071 | -0.002 ± 0.0071 | -0.001 ± 0.0071 | -0.0055 ± 0.005 | -0.0005 ± 0.015 | 0.0145 ± 0.03 | 0.0055 ± 0.025 | 0.0085 ± 0.0064 | 0.004 ± 0.0057 | -0.005 ± 0.0071 | 0.0115 ± 0.019 | 0.006 ± 0.0028 | 0 ± 0.0057 | 0.012 ± 0.0057 |
| BE3C:CXCL11/I-TAC | -0.0165 ± 0.00071 | 0.018 ± 0.045 | -0.0025 ± 0.011 | -0.0075 ± 0.00071 | -0.004 ± 0.0057 | -0.001 ± 0.0042 | 0.01 ± 0.023 | 0.0165 ± 0.013 | -0.0005 ± 0.019 | -0.001 ± 0.011 | -0.009 ± 0.038 | 0.0225 ± 0.04 | 0.0045 ± 0.028 | 0.0055 ± 0.013 | 0.0005 ± 0.015 | 0.004 ± 0.013 | 0.003 ± 0.014 | 0.03 ± 0.0099 | -0.002 ± 0.04 | -0.0085 ± 0.018 | -0.025 ± 0.024 | -0.005 ± 0.013 | 0 ± 0.0014 | -0.013 ± 0.0057 | -0.0075 ± 0.0021 | 0.002 ± 0.0028 | -0.0035 ± 0.005 | -0.015 ± 0.0085 | -0.0175 ± 0.0078 | -0.009 ± 0.0057 | 0.005 ± 0.011 |
| HDF3CGF:CXCL11/I-TAC | 0.11 ± 0.013 | -0.0245 ± 0.0035 | -0.0045 ± 0.021 | -0.015 | -0.0295 ± 0.005 | -0.094 ± 0.018 | -0.01 ± 0.034 | -0.033 ± 0.0028 | 0.0105 ± 0.021 | 0.002 ± 0.034 | -0.0135 ± 0.042 | -0.014 ± 0.057 | 0.001 ± 0.013 | -0.022 ± 0.0057 | -0.019 ± 0.0057 | -0.0405 ± 0.0092 | -0.005 ± 0.05 | -0.042 ± 0.054 | -0.0345 ± 0.0064 | -0.0245 ± 0.03 | -0.0655 ± 0.005 | -0.0155 ± 0.04 | -0.0325 ± 0.025 | 0.003 ± 0.0028 | 0.0075 ± 0.026 | -0.166 ± 0.036 | -0.022 | 0.0025 ± 0.036 | -0.004 ± 0.0014 | 0.015 ± 0.025 | 0.002 ± 0.021 |
